In patent US5856309A (Boehringer Mannheim GmbH, priority 1997, dated 1999):

What was measured:
Conditions in all cases: whole synthesis, scale 0.03 mmol, HCl
[1] = general procedure: Fmoc solid-phase peptide synthesis; Fmoc-L-Phe-TCP resin; TBTU/NMM
[2] = general procedure: Fmoc solid-phase peptide synthesis; Fmoc-L-Tyr-TCP resin; TBTU/NMM
[3] = general procedure: Fmoc solid-phase peptide synthesis; Fmoc-L-Trp-TCP resin; TBTU/NMM
[4] = general procedure: Fmoc solid-phase peptide synthesis; Fmoc-L-Ser(t-Bu)-TCP; TBTU/NMM

Troc-Ada-Gly-Asp-Phe
crude mass [1]: 14 mg

Ada-Gly-Asp-Tyr
crude mass [2]: 12 mg

Troc-Ada-Gly-Asp-Trp
crude mass [3]: 16 mg

Troc-Ada-Gly-Asp-Ser
crude mass [4]: 15 mg
